This assay has as its target T1, mouse CX3CR1 on transfected Jurkat cells (mouse) (UniProt Q9Z0D9).
T1 sequence: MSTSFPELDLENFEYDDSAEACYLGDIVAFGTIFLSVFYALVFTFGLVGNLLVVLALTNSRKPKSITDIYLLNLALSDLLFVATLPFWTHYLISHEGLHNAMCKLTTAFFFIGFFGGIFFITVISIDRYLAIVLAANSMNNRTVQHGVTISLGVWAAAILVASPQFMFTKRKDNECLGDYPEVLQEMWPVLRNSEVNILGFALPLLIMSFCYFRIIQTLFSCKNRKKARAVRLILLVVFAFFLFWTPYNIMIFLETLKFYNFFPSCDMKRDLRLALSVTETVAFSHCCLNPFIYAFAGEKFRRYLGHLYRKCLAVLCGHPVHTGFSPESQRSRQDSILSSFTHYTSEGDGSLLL
As to the kind of experiment: flow cytometry on cells; Jurkat-mCX3CR1 cells incubated with anti-CX3CR1 mAb hybridoma supernatant or isotype control for 30 min, then CX3CL1-hFc at 2 µg/ml; bound CX3CL1-Fc detected with goat anti-human IgG-PE; only the binder purified. A general note: Flow cytometry measures light scatter and fluorescence of single cells or particles in a stream.

These are yes or no findings as the source states them, for the method shown. Some results given as binding are weak or reduced against the parent protein; the word gives no strength. Where a sequence is shown, tags or fusion partners need not be part of it.

B1: CX3CL1-human IgG1 Fc fusion protein (Fc fusion, UniProt O35188 25-336)
chain: QHLGMTKCEIMCDKMTSRIPVALLIRYQLNQESCGKRAIVLETTQHRRFCADPKEKWVQDAMKHLDHQAAALTKNGGKFEKRVDNVTPGITLATRGLSPSALTKPESATLEDLALELTTISQEARGTMGTSQEPPAAVTGSSLSTSEAQDAGLTAKPQSIGSFEAADISTTVWPSPAVYQSGSSSWAEEKATESPSTTAPSPQVSTTSPSTPEENVGSEGQPPWVQGQDLSPEKSLGSEEINPVHTDNFQERGPGNTVHPSVAPISSEETPSPELVASGSQAPKIEEPIHATADPQKLSVLITPVPDTQAAT
As for B1, the binding result is “binds”.

The record behind these values is article PMC10524267.
